Results reported in paper PMC6221140.

Molecular target: T1, SpoIID (Clostridium difficile) (UniProt Q18CL6)
T1 sequence: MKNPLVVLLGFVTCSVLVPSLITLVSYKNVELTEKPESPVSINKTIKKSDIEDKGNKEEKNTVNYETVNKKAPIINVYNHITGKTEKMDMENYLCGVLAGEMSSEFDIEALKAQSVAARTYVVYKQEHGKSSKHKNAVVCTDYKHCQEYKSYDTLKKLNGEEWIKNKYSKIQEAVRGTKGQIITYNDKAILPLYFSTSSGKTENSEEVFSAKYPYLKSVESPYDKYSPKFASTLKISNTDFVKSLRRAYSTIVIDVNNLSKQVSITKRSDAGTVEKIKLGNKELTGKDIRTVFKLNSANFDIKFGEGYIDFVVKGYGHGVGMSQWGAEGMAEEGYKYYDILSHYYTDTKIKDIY
Experiment: condition: only SpoIIIAH fused to T18 and SpoIID fused to T25 (the reverse orientation); two-hybrid; BACTH in E. coli BTH101 (cya); full length proteins fused to the C-terminus of T18 (pUT18C) or T25 (pKT25) of CyaA; blue colonies on X-Gal/IPTG plates, 30°C, 24 h, and β-galactosidase activity of liquid cultures in Miller units; biological duplicate

binding: no binding
Substance: SpoIIIAH (Clostridium difficile)

These are yes or no findings as the source states them, for the method shown.
